Values of other authors as cited in US20050032096A1, “Methods for predicting drug sensitivity in patients afflicted with hypertension” (deCODE genetics ehf., priority 2003, published 2005).
At least one compound was matched to its structure with a doubt left.

Columns and labels:
[1] = system: patients with hypertension; conditions: diastolic 105-114 mm Hg versus 90-104 mm Hg; cited from earlier work
[2] = system: patients with CHD; conditions: in vivo; cited from earlier work

CCOC(=O)C1=C(COCCN)NC(C)=C(C(=O)OC)C1c1ccccc1Cl (centres unmarked) [Norvasc, amlodipine]
greater blood pressure response in moderate hypertension than in mild hypertension [1]: ~50% | reduction of incidence of fatal and nonfatal cardiovascular events [2]: 31%
